Converted amounts (≈) assume the structure as drawn.
Tested on: Escherichia coli
Assay: Antibacterial activity against Escherichia coli UFPEDA 224 after 24 to 48 hrs by serial dilution method
Assay type: functional

MIC: 14 µg/mL (≈ 43.3 µM)
SMILES: O=C(N[C@H](CO)[C@H](O)c1ccc([N+](=O)[O-])cc1)C(Cl)Cl [CHLORAMPHENICOL]

— ChEMBL document CHEMBL1240411, “Synthesis and evaluation of anti-Toxoplasma gondii and antimicrobial activities of thiosemicarbazides, 4-thiazolidinones and 1,3,4-thiadiazoles” (Eur J Med Chem, 2010)
